Results are given in words; binding and its absence hold for the method and conditions named. In cells and extracts the contact can be indirect. Some results given as binding are weak or reduced against the parent protein; the word gives no strength. Tags and fused reporters may be left off the sequences shown.
Target: T1, FLCN-FLAG-WT (Folliculin, wild type) (human) (UniProt Q8NFG4)
T1 sequence: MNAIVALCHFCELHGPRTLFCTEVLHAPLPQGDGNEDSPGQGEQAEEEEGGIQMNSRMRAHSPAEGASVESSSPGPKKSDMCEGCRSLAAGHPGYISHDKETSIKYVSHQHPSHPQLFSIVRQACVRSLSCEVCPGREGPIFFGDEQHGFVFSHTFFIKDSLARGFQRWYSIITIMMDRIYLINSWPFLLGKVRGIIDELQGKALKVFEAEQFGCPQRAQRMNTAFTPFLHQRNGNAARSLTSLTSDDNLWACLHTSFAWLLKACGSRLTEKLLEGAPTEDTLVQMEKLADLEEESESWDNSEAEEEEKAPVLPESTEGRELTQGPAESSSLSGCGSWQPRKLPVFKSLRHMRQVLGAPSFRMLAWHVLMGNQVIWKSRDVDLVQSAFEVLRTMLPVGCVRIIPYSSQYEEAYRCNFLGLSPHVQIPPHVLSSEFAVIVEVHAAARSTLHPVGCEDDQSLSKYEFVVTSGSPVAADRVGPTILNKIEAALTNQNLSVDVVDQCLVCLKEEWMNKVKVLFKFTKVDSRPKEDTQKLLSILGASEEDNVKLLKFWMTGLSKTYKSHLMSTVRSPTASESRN
Assay: co-IP; FLCN-FLAG (WT or L460QsX25) transiently expressed in HEK293 and immunoprecipitated on anti-FLAG M2 Affinity Gel agarose, 2 hr at 4 C; washed 4 times with lysis buffer (20 mM HEPES pH 7.0, 100 mM NaCl, 1 mM MgCl2, 0.1% NP40); endogenous partners detected by immunoblotting; empty vector as control

binding: binds
B1: Folliculin-interacting protein-1 (FNIP1), endogenous (protein, UniProt Q8TF40 1-1166)
chain: MAPTLFQKLFSKRTGLGAPGRDARDPDCGFSWPLPEFDPSQIRLIVYQDCERRGRNVLFDSSVKRRNEDISVSKLGSDAQVKVFGKCCQLKPGGDSSSSLDSSVTSSSDIKDQCLKYQGSRCSSDANMLGEMMFGSVAMSYKGSTLKIHQIRSPPQLMLSKVFTARTGSSICGSLNTLQDSLEFINQDNNTLKADNNTVINGLLGNIGLSQFCSPRRAFSEQGPLRLIRSASFFAVHSNPMDMPGRELNEDRDSGIARSASLSSLLITPFPSPNSSLTRSCASSYQRRWRRSQTTSLENGVFPRWSIEESFNLSDESCGPNPGIVRKKKIAIGVIFSLSKDEDENNKFNEFFFSHFPLFESHMNKLKSAIEQAMKMSRRSADASQRSLAYNRIVDALNEFRTTICNLYTMPRIGEPVWLTMMSGTPEKNHLCYRFMKEFTFLMENASKNQFLPALITAVLTNHLAWVPTVMPNGQPPIKIFLEKHSSQSVDMLAKTHPYNPLWAQLGDLYGAIGSPVRLARTVVVGKRQDMVQRLLYFLTYFIRCSELQETHLLENGEDEAIVMPGTVITTTLEKGEIEESEYVLVTMHRNKSSLLFKESEEIRTPNCNCKYCSHPLLGQNVENISQQEREDIQNSSKELLGISDECQMISPSDCQEENAVDVKQYRDKLRTCFDAKLETVVCTGSVPVDKCALSESGLESTEETWQSEKLLDSDSHTGKAMRSTGMVVEKKPPDKIVPASFSCEAAQTKVTFLIGDSMSPDSDTELRSQAVVDQITRHHTKPLKEERGAIDQHQETKQTTKDQSGESDTQNMVSEEPCELPCWNHSDPESMSLFDEYFNDDSIETRTIDDVPFKTSTDSKDHCCMLEFSKILCTKNNKQNNEFCKCIETVPQDSCKTCFPQQDQRDTLSILVPHGDKESSDKKIAVGTEWDIPRNESSDSALGDSESEDTGHDMTRQVSSYYGGEQEDWAEEDEIPFPGSKLIEVSAVQPNIANFGRSLLGGYCSSYVPDFVLQGIGSDERFRQCLMSDLSHAVQHPVLDEPIAEAVCIIADMDKWTVQVASSQRRVTDNKLGKEVLVSSLVSNLLHSTLQLYKHNLSPNFCVMHLEDRLQELYFKSKMLSEYLRGQMRVHVKELGVVLGIESSDLPLLAAVASTHSPYVAQILL

Source: PMC5955167
